This note sets out measurements from patent US20240302356A1, “METHOD FOR DETERMINING A TOXICITY AND/OR GROWTH PROMOTION EFFECT OF A TREATMENT OR COMPOUND” (priority 2021, published 2024).

The data set has as its system Arabidopsis thaliana. To be noted: seedlings in MS medium, Cd 0-50 μM.

With `[Cd]` [Cd, cadmium], the “tipping point ploidy level T” value is reported as 8C.
